The values that follow come from publication PMC12135451.

These are yes or no findings as the source states them, for the method shown. In cells and extracts the contact can be indirect. Binding calls can cover weak binding; strength is not graded here. Where a sequence is shown, tags or fusion partners need not be part of it.

In this experiment the target is C-terminal region of HOIP (Flag-HOIP construct) (human). Nature of the experiment: co-IP; asynchronous 293T cells transfected with Flag- and HA-tagged constructs; anti-Flag and/or anti-HA IP; lysis in EBC buffer (50 mM Tris pH 7.5, 120 mM NaCl, 0.5% NP-40), four washes with NETN buffer; immunoblot. (In western blotting, separated proteins are transferred to a membrane and probed.)

B1: HA-p31^comet (protein, UniProt Q15013 1-274)
chain: MAAPEAEVLSSAAVPDLEWYEKSEETHASQIELLETSSTQEPLNASEAFCPRDCMVPVVFPGPVSQEGCCQFTCELLKHIMYQRQQLPLPYEQLKHFYRKPSPQAEEMLKKKPRATTEVSSRKCQQALAELESVLSHLEDFFARTLVPRVLILLGGNALSPKEFYELDLSLLAPYSVDQSLSTAACLRRLFRAIFMADAFSELQAPPLMGTVVMAQGHRNCGEDWFRPKLNYRVPSRGHKLTVTLSCGRPSIRTTAWEDYIWFQAPVTFKGFRE
Turning to B1, the binding entry is on record as “binds”.
